Not every detail of the peptide structures is certain; ends, links or a residue may be inferred. Where no end group is shown, it is not given here.
Legend:
collagen Iα1 gene [1] = assay: RT-PCR analysis of extracellular matrix gene expression (collagen Iα1); assay type: cell-based, mouse; conditions: NIH3T3 cells; peptide at 10 µM, 50 µM, 100 µM; 24 hours; FIG. 1
fibronectin gene [2] = assay: RT-PCR analysis of extracellular matrix gene expression (fibronectin); assay type: cell-based, mouse; conditions: NIH3T3 cells; peptide at 10 µM, 50 µM, 100 µM; 24 hours; FIG. 1
elastin gene [3] = assay: RT-PCR analysis of extracellular matrix gene expression (elastin); assay type: cell-based, mouse; conditions: NIH3T3 cells; peptide at 10 µM, 50 µM, 100 µM; 24 hours; FIG. 1
pro-collagen Iα1 = assay: Pro-Collagen ELISA of culture supernatant; assay type: cell-based, mouse; conditions: NIH3T3 cells; peptide at 10 µM, 50 µM, 100 µM; 72 hours; FIG. 2
hyaluronic acid (HA) = assay: HA (hyaluronic acid) ELISA of culture supernatant; assay type: cell-based, human; conditions: HaCaT cells; peptide at 10 µM, 50 µM, 100 µM; 72 hours; FIG. 2
SIRT1 (Sirtuin 1) gene = assay: RT-PCR analysis of skin barrier-related gene expression (SIRT1); assay type: cell-based, human; conditions: HaCaT cells; peptide at 10 µM, 50 µM, 100 µM; 24 hours; FIG. 3
AQP3 (Aquaporin 3) gene = assay: RT-PCR analysis of skin barrier-related gene expression (AQP3); assay type: cell-based, human; conditions: HaCaT cells; peptide at 10 µM, 50 µM, 100 µM; 24 hours; FIG. 3
NIH3T3 cells = assay: Inhibition of UV-induced ROS generation (DCFH-DA, FACS) in NIH3T3 cells; assay type: cell-based, mouse; conditions: UVA 6 J/cm^2, peptide at 10 µM, 50 µM, 100 µM, 24 hours after irradiation, FIG. 4A
HaCaT cells = assay: Inhibition of UV-induced ROS generation (DCFH-DA, FACS) in HaCaT cells; assay type: cell-based, human; conditions: UVB 15 mJ/cm^2, peptide at 10 µM, 50 µM, 100 µM, 24 hours after irradiation, FIG. 4B
collagen Iα1 gene [4] = assay: Restoration of extracellular matrix gene expression reduced by UV irradiation (collagen Iα1, RT-PCR); assay type: cell-based, mouse; conditions: NIH3T3 cells; UVA 6 J/cm^2; peptide at 10 µM, 50 µM, 100 µM; 6 hours after irradiation; FIG. 5
fibronectin gene [5] = assay: Restoration of extracellular matrix gene expression reduced by UV irradiation (fibronectin, RT-PCR); assay type: cell-based, mouse; conditions: NIH3T3 cells; UVA 6 J/cm^2; peptide at 10 µM, 50 µM, 100 µM; 6 hours after irradiation; FIG. 5
elastin gene [6] = assay: Restoration of extracellular matrix gene expression reduced by UV irradiation (elastin, RT-PCR); assay type: cell-based, mouse; conditions: NIH3T3 cells; UVA 6 J/cm^2; peptide at 10 µM, 50 µM, 100 µM; 6 hours after irradiation; FIG. 5
AQP3 gene = assay: Restoration of skin barrier-related gene expression reduced by UV irradiation (AQP3, RT-PCR); assay type: cell-based, human; conditions: HaCaT cells; UVB 20 mJ/cm^2; peptide at 10 µM, 50 µM, 100 µM; 4 hours after irradiation; FIG. 6
MMP-1 [7] = assay: Inhibition of UV-induced MMP-1 expression (western blot) in NIH3T3 cells; assay type: cell-based, mouse; conditions: UVA 6 J/cm^2, peptide at 10 µM, 50 µM, 100 µM, 24 hours after irradiation, FIG. 7A
MMP-1 [8] = assay: Inhibition of UV-induced MMP-1 expression (western blot) in HaCaT cells; assay type: cell-based, human; conditions: UVB 15 mJ/cm^2, peptide at 10 µM, 50 µM, 100 µM, 24 hours after irradiation, FIG. 7B

Question: Which “mRNA expression level of collagen Iα1 (Collagen, type I, alpha 1) gene” value (collagen Iα1 gene [1]) does the source give for “GRELVRAQIA [peptide of SEQ ID NO: 1, GRELVRAQIA]” here?
Answer: The value was “increased”.

Question: What about the “mRNA expression level of fibronectin gene” value (fibronectin gene [2]) of the same sequence?
Answer: Its value is “increased”.

Question: What about the “mRNA expression level of elastin gene” value (elastin gene [3]) of the same sequence?
Answer: The value was “increased”.

Question: What about the “secretion of pro-collagen Iα1” value (pro-collagen Iα1) of the same sequence?
Answer: The value was “increased”.

Question: What about the “secretion of hyaluronic acid (HA)” value (hyaluronic acid (HA)) of the same sequence?
Answer: The value was “increased”.

Question: And the “mRNA expression level of SIRT1 (Sirtuin 1) gene” value (SIRT1 (Sirtuin 1) gene)?
Answer: Its value is “increased”.

Question: And the “mRNA expression level of AQP3 (Aquaporin 3) gene” value (AQP3 (Aquaporin 3) gene)?
Answer: The value was “increased”.

Question: And the “intracellular ROS levels increased by UV irradiation” value (NIH3T3 cells)?
Answer: The value was “reduced”.

Question: What about the “intracellular ROS levels increased by UV irradiation” value (HaCaT cells) of the same sequence?
Answer: Its value is “reduced”.

Question: What about the “mRNA expression level of collagen Iα1 gene reduced by UV irradiation” value (collagen Iα1 gene [4]) of the same sequence?
Answer: Its value is “increased again”.

Question: And the “mRNA expression level of fibronectin gene reduced by UV irradiation” value (fibronectin gene [5])?
Answer: Its value is “increased again”.

Question: What about the “mRNA expression level of elastin gene reduced by UV irradiation” value (elastin gene [6]) of the same sequence?
Answer: Its value is “increased again”.

Question: And the “mRNA expression level of AQP3 gene reduced by UV irradiation” value (AQP3 gene)?
Answer: Its value is “restored”.

Question: And the “increase in MMP-1 expression induced by UV irradiation” value (MMP-1 [7])?
Answer: Its value is “inhibited”.

Question: And the “increase in MMP-1 expression induced by UV irradiation” value (MMP-1 [8])?
Answer: Its value is “inhibited”.

Reference: patent publication EP4772524A1, “PEPTIDE HAVING ACTIVITY OF IMPROVING SKIN CONDITION AND USES THEREOF” (Caregen Co., Ltd., priority 2023, dated 2026)
